By MIC is commonly meant the lowest concentration that inhibits growth of the organism.

Each structure is given as a SMILES string. Some results are limits rather than exact numbers.

One compound from ChEMBL document CHEMBL1221243, “Design, synthesis, and biological evaluation of a novel series of quercetin diacylglucosides as potent anti-MRSA and anti-VRE agents” (Bioorg Med Chem Lett, 2010) can be followed below.

The assay deals with Pseudomonas aeruginosa. Put plainly: Antimicrobial activity against Pseudomonas aeruginosa PAO1 after 24 hrs by microdilution assay. Conditions: PAO1, 24 h. It is filed as functional. On the technique in general: Dilution methods test growth across graded concentrations, often in twofold steps.

On to `CN[C@H](CC(C)C)C(=O)N[C@H]1C(=O)N[C@@H](CC(N)=O)C(=O)N[C@H]2C(=O)N[C@H]3C(=O)N[C@H](C(=O)N[C@H](C(=O)O)c4cc(O)cc(O)c4-c4cc3ccc4O)[C@H](O)c3ccc(c(Cl)c3)Oc3cc2cc(c3O[C@@H]2O[C@H](CO)[C@@H](O)[C@H](O)[C@H]2O[C@H]2C[C@](C)(N)[C@H](O)[C@H](C)O2)Oc2ccc(cc2Cl)[C@H]1O` [VANCOMYCIN], for which the MIC was > 128 µg/mL.
